# Assay results as given in US10202408B2, “Prodrugs and methods of use thereof” (Health Innovation Ventures B.V., priority 2012, dated 2019).
# For some assays here: At least one read-out could not be matched to a standard name with certainty. Some entries share one result that the patent states for a list of compounds.
# Legend:
# [1] = test system: HCT116 cells engineered to over-express human aldo-ketoreductase 1C3 (AKR1C3); conditions: HCT116, aerobic; conclusion of WO/2010/044685A1; cited from earlier work
# [2] = test system: wild type SiHa tumour xenografts; assay: Excision assay with and without radiation, wild type SiHa tumour xenografts; assay type: in vivo, NIH-III nude mice; conditions: 10Gy radiation
# Method: Tumours were grown subcutaneously in the flank of NIH-III mice by inoculating cells grown in tissue culture. Tumours were monitored using electronic calipers. When tumours reached treatment size, mice were randomized to treatment groups (five to seven per group). Compounds were given as single (or BID) intraperitoneal doses alone or 5 min after whole body irradiation (^60Co source). Eighteen hours after treatment, tumours were excised, weighed, minced, dissociated enzymatically, and plated to determine clonogenicity. Clonogens/gram of tissue were calculated relative to controls and effects of treatment were tested for significance (ANOVA with Dunnett's).
smiles,measurement,setting,value
"CC(C)N(CCO)C(=O)c1cc([N+](=O)[O-])cc([N+](=O)[O-])c1N(CCBr)CCBr [compound 8, reference compound]",AKR1C3 substrate status concluded from low cell density IC50 assay,[1],not substrates for AKR1C3
"CCCN(CCO)C(=O)c1cc([N+](=O)[O-])cc([N+](=O)[O-])c1N(CCBr)CCBr [compound 9, reference compound]",AKR1C3 substrate status concluded from low cell density IC50 assay,[1],not substrates for AKR1C3
"CCS(=O)(=O)c1cc([N+](=O)[O-])c(C(=O)N(C)CCOP(=O)(O)O)cc1N(CCBr)CCBr [compound 11, 2-(5-(bis(2-bromoethyl)amino)-4-(ethylsulfonyl)-N-methyl-2-nitrobenzamido)ethyl dihydrogen phosphate]",LCK for prodrug plus radiation,[2]; 1/4 mice off-scale,> 4
"CCN1CCN(C(=O)c2cc(N(CCBr)CCBr)c(S(C)(=O)=O)cc2[N+](=O)[O-])CC1 [compound 23, (5-(bis(2-bromoethyl)amino)-4-(methylsulfonyl)-2-nitrophenyl)(4-ethylpiperazin-1-yl)methanone]",LCK for prodrug plus radiation,[2]; 4/4 mice off-scale,> 4
"CS(=O)(=O)c1cc([N+](=O)[O-])c(C(=O)NCCOP(=O)(O)O)cc1N(CCBr)CCBr [compound 300, 2-(5-(bis(2-bromoethyl)amino)-4-(methylsulfonyl)-2-nitrobenzamido)ethyl dihydrogen phosphate]",LCK for prodrug plus radiation,[2]; 4/4 mice off-scale,> 4
